According to paper PMC4479446:
No constants are given. Whether binding was seen depends on the method and setting. In cells and extracts the contact can be indirect. Some binding calls cover weakened binding; strength is not graded here.

The chains behind the UniProt entries cited, without tags or fusion partners.
UniProt P35222: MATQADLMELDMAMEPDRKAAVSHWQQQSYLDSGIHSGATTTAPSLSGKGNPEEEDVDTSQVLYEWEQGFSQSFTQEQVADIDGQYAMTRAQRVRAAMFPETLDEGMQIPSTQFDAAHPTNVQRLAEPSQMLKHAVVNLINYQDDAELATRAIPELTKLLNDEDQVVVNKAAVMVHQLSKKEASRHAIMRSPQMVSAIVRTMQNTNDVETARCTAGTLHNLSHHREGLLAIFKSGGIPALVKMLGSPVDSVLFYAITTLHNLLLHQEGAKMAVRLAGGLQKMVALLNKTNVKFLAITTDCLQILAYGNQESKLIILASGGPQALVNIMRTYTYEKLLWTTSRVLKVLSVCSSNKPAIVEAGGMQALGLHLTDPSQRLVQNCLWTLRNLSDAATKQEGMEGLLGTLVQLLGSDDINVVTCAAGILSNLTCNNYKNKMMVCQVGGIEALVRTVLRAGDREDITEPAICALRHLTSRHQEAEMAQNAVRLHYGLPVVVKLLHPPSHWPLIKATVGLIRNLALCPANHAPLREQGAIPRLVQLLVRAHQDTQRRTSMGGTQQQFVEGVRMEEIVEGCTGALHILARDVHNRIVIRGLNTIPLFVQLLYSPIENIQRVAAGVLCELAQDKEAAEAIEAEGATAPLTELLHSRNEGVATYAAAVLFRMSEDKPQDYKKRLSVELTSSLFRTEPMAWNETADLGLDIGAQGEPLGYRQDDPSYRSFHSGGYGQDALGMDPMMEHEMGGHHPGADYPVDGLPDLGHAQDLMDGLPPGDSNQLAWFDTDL

Molecular target: β-catenin (human (endogenous in Caco-2)) (UniProt P35222)
Experiment: co-IP; Caco-2 cell extracts after 6 h of the indicated treatments (AEE788 2.5 µM and/or celecoxib 10 µM); IP with β-catenin antibody or control IgG, Protein A/G gel, 4°C; co-IP buffer 10 mM HEPES, 10 mM KCl, 1.5 mM MgCl2, 0.5 mM DTT, 0.075% NP40; IB with FOXM1 antibody

binding: binds
B1: forkhead box M1 (FOXM1) transcription factor (protein, UniProt Q08050 1-763)
chain: MKTSPRRPLILKRRRLPLPVQNAPSETSEEEPKRSPAQQESNQAEASKEVAESNSCKFPAGIKIINHPTMPNTQVVAIPNNANIHSIITALTAKGKESGSSGPNKFILISCGGAPTQPPGLRPQTQTSYDAKRTEVTLETLGPKPAARDVNLPRPPGALCEQKRETCADGEAAGCTINNSLSNIQWLRKMSSDGLGSRSIKQEMEEKENCHLEQRQVKVEEPSRPSASWQNSVSERPPYSYMAMIQFAINSTERKRMTLKDIYTWIEDHFPYFKHIAKPGWKNSIRHNLSLHDMFVRETSANGKVSFWTIHPSANRYLTLDQVFKPLDPGSPQLPEHLESQQKRPNPELRRNMTIKTELPLGARRKMKPLLPRVSSYLVPIQFPVNQSLVLQPSVKVPLPLAASLMSSELARHSKRVRIAPKVLLAEEGIAPLSSAGPGKEEKLLFGEGFSPLLPVQTIKEEEIQPGEEMPHLARPIKVESPPLEEWPSPAPSFKEESSHSWEDSSQSPTPRPKKSYSGLRSPTRCVSEMLVIQHRERRERSRSRRKQHLLPPCVDEPELLFSEGPSTSRWAAELPFPADSSDPASQLSYSQEVGGPFKTPIKETLPISSTPSKSVLPRTPESWRLTPPAKVGGLDFSPVQTSQGASDPLPDPLGLMDLSTTPLQSAPPLESPQRLLSSEPLDLISVPFGNSSPSDIDVPKPGSPEPQVSGLAANRSLTEGLVLDTMNDSLSKILLDISFPGLDEDPLGPDNINWSQFIPELQ
